Assay results from patent US20210238292A1 (VACCINEX, published 2021).
Results are given in words; binding and its absence hold for the method and conditions named.

What was measured:
PLPP3 = experiment: on-cell Kd, antibody titration on cells expressing PLPP3, flow cytometry
SLC6A9 = experiment: on-cell Kd, antibody titration on cells expressing SLC6A9, flow cytometry
SERPINA3 = experiment: on-cell Kd, antibody titration on cells expressing SERPINA3, flow cytometry

B1: anti-CCR8-2 (antibody, V domains shown)
VH: EVQLLESGGGLVQPGGSLRLSCAAGGFTFSAYTMNWVRQAPGKGLEWVSAISASGGRTYYADSVKGRFTISRDNSKNTLYLQMNSLRAEDTAVYYCARRFARGWFDPWGQGTLVTVSS
VL: QSVLTQPPSVSAAPGQKVTISCSGSSSNIGNNYVSWYQQLPGTAPKLLIYDNNKRPSGIPDRFSGSKSGTSATLGITGLQTGDEADYYCGTWDSSLSAWVFGGGTKLT
notes: Cloned into mammalian expression vectors; human IgG; also called heavy chain H23727
For B1, the binding (PLPP3) was “no binding (tested: 100 nM (top of the affinity axis))”, the binding (SLC6A9) was “no binding (tested: 100 nM (top of the affinity axis))” and the binding (SERPINA3) was “no binding (tested: 100 nM (top of the affinity axis))”.

B2: anti-CCR8-1 (antibody, human IgG1, V domains shown)
VH: QVQLVQSGAEVKKPGASVKVSCKASGYTFTSYYMHWVRQAPGQGLEWMGIINPSGGSTSYAQKFQGRVTMTRDTSTSTVYMELSSLRSEDTAVYYCARAVRNRFRFDYWGQGTLVTVSS
VL: QSALTQPASVSGSPGQSITISCTGTSSDVGSYNLVSWYQQHPGKAPKLMIYEVSKRPSGVSNRFSGSKSGNTASLTISGLQAEDEADYYCSSYAGSSTFVVFGGGTKLTVL
B2 was tested, and the binding (PLPP3) was “no binding (tested: 100 nM (top of the affinity axis))”, the binding (SLC6A9) was “no binding (tested: 100 nM (top of the affinity axis))” and the binding (SERPINA3) was “no binding (tested: 100 nM (top of the affinity axis))”.
